Assay results: patent US20170306346A1
These are yes or no findings as the source states them, for the method shown. In cells and extracts the contact can be indirect. Some entries that bind do so weakly or less than the wild type. Sequences can lack the tags named with a protein.

Protein sequences, listed by entry. Tags and fused reporters are not part of them.
UniProt Q39204: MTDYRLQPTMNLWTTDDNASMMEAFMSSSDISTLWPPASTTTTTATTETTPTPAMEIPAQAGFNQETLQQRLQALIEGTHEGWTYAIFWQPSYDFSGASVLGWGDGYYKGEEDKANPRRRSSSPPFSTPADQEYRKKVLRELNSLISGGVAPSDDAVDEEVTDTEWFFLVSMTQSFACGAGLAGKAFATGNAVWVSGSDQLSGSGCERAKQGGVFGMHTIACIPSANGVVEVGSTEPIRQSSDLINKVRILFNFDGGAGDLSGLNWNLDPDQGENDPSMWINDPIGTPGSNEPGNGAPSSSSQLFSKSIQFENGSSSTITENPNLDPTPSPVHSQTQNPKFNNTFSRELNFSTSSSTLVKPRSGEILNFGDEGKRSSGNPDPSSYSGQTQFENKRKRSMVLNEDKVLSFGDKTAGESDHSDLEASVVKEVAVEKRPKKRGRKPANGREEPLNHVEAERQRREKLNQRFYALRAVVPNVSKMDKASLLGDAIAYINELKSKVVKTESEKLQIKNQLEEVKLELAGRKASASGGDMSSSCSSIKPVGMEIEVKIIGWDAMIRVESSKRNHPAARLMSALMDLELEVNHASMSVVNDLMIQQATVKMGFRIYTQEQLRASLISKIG

Legend:
[1] = target: GST-MYC2-HA (Arabidopsis thaliana) (UniProt Q39204); experiment: in vitro pull-down, MBP-PUB10 deletion derivatives as baits, GST-MYC2 prey
[2] = target: GST-MYC2-HA (Arabidopsis thaliana) (UniProt Q39204); experiment: in vitro pull-down, MBP-PUB10 deletion derivatives as baits, GST-MYC2 prey (FIG. 1B)
[3] = target: GST-MYC2-HA (Arabidopsis thaliana) (UniProt Q39204); experiment: in vitro pull-down with deletion derivatives
[4] = target: GST-AtUBC8 (Arabidopsis) [GST: P08515]; experiment: in vitro pull-down, MBP-PUB10 with GST-AtUBC8
[5] = target: GST-AtUBC36 (Arabidopsis) [GST: P08515]; experiment: in vitro pull-down, MBP-PUB10 with GST-AtUBC36
[6] = target: GST-AtUBC2 (Arabidopsis) [GST: P08515]; experiment: in vitro pull-down, MBP-PUB10 with GST-AtUBC2, anti-MBP antibody (FIG. 9)
[7] = target: T1, GST-AtUBC31 (Arabidopsis) (UniProt Q9C8X7); experiment: in vitro pull-down, MBP-PUB10 with GST-AtUBC31
T1 sequence: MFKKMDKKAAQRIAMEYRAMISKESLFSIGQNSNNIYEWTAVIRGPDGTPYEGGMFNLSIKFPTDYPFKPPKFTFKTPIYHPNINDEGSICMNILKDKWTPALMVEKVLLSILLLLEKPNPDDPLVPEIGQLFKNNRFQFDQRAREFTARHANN

[8] = target: T1, GST-AtUBC31 (Arabidopsis); experiment: in vitro pull-down, MBP-PUB10 with GST-AtUBC31, anti-MBP antibody (FIG. 9)
[9] = target: GST-MYC2-HA (Arabidopsis thaliana) (UniProt Q39204); experiment: in vitro pull-down (FIGS. 1B and 1C)
[10] = target: GST-MYC2-HA (Arabidopsis thaliana) (UniProt Q39204); experiment: in vitro pull-down with purified proteins
[11] = target: GST-AtUBC2 (Arabidopsis) [GST: P08515]; experiment: in vitro pull-down, MBP-PUB10 with GST-AtUBC2
[12] = target: GST-AtUBC36 (Arabidopsis) [GST: P08515]; experiment: in vitro pull-down, MBP-PUB10 with GST-AtUBC36, anti-MBP antibody (FIG. 9)
[13] = target: GST-AtUBC8 (Arabidopsis) [GST: P08515]; experiment: in vitro pull-down, MBP-PUB10 with GST-AtUBC8, anti-MBP antibody (FIG. 9)
[14] = target: GST-MYC2-HA (Arabidopsis thaliana) (UniProt Q39204); experiment: in vitro pull-down, MBP-PUB10 bait on amylose resin, GST-MYC2 prey, anti-GST Western blot
[15] = target: T2, GST-PUB10 (Arabidopsis thaliana) (UniProt Q9C9A6); experiment: in vitro pull-down, GST-PUB10 fusions as baits and MBP-PUB10 fusions as preys (FIG. 1C)
T2 sequence: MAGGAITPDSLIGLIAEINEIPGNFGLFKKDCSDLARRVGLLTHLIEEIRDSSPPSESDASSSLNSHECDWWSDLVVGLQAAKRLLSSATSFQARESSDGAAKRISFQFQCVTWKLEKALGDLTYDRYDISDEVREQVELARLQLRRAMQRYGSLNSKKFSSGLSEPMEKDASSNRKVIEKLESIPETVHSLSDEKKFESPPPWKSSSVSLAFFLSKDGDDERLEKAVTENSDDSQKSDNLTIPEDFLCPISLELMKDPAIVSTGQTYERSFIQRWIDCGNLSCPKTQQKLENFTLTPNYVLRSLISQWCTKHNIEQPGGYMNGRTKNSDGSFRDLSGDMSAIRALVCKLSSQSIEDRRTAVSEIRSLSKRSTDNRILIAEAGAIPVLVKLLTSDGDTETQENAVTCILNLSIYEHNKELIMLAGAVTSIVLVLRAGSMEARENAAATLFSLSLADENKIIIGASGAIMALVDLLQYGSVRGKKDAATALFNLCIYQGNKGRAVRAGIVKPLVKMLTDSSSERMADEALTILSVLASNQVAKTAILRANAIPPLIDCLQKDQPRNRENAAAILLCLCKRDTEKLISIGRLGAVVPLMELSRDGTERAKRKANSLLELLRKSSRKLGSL

[16] = target: GST-MYC2-HA (Arabidopsis thaliana) (UniProt Q39204); experiment: in vitro pull-down, MBP-PUB10 (C249A) bait, GST-MYC2 prey, anti-GST Western blot
[17] = target: T2, GST-PUB10 (Arabidopsis thaliana); experiment: in vitro pull-down, GST-PUB10 fusions as baits and MBP-PUB10 fusions as preys
[18] = target: GST-MYC2-HA (Arabidopsis thaliana) (UniProt Q39204); experiment: in vitro pull-down, MBP-PUB11 deletion derivatives as baits, GST-MYC2 prey (FIG. 7B)
[19] = target: myc-MYC2 (Arabidopsis thaliana) (UniProt Q39204); experiment: co-immunoprecipitation with anti-myc antibody from double transgenic Arabidopsis seedlings, Western blot (FIGS. 3C and 3D)
[20] = target: myc-MYC2 (Arabidopsis thaliana) (UniProt Q39204); experiment: co-immunoprecipitation with anti-myc antibody from double transgenic Arabidopsis seedlings, anti-HA Western blot
[21] = target: myc-MYC2 (Arabidopsis thaliana) (UniProt Q39204); experiment: summary of the in vivo results (co-immunoprecipitation in Arabidopsis)

Measured: binding

B1: MBP-PUB10 (ARM)-6myc (enzyme, not shown: large carriers; small tags and cut ends)
chain: GYMNGRTKNSDGSFRDLSGDMSAIRALVCKLSSQSIEDRRTAVSEIRSLSKRSTDNRILIAEAGAIPVLVKLLTSDGDTETQENAVTCILNLSIYEHNKELIMLAGAVTSIVLVLRAGSMEARENAAATLFSLSLADENKIIIGASGAIMALVDLLQYGSVRGKKDAATALFNLCIYQGNKGRAVRAGIVKPLVKMLTDSSSERMADEALTILSVLASNQVAKTAILRANAIPPLIDCLQKDQPRNRENAAAILLCLCKRDTEKLISIGRLGAVVPLMELSRDGTERAKRKANSLLELLRKSSRKLGSL
binds: [1] | [2] | [3]

B2: MBP-PUB10-6myc (enzyme, not shown: large carriers; small tags and cut ends)
chain: MAGGAITPDSLIGLIAEINEIPGNFGLFKKDCSDLARRVGLLTHLIEEIRDSSPPSESDASSSLNSHECDWWSDLVVGLQAAKRLLSSATSFQARESSDGAAKRISFQFQCVTWKLEKALGDLTYDRYDISDEVREQVELARLQLRRAMQRYGSLNSKKFSSGLSEPMEKDASSNRKVIEKLESIPETVHSLSDEKKFESPPPWKSSSVSLAFFLSKDGDDERLEKAVTENSDDSQKSDNLTIPEDFLCPISLELMKDPAIVSTGQTYERSFIQRWIDCGNLSCPKTQQKLENFTLTPNYVLRSLISQWCTKHNIEQPGGYMNGRTKNSDGSFRDLSGDMSAIRALVCKLSSQSIEDRRTAVSEIRSLSKRSTDNRILIAEAGAIPVLVKLLTSDGDTETQENAVTCILNLSIYEHNKELIMLAGAVTSIVLVLRAGSMEARENAAATLFSLSLADENKIIIGASGAIMALVDLLQYGSVRGKKDAATALFNLCIYQGNKGRAVRAGIVKPLVKMLTDSSSERMADEALTILSVLASNQVAKTAILRANAIPPLIDCLQKDQPRNRENAAAILLCLCKRDTEKLISIGRLGAVVPLMELSRDGTERAKRKANSLLELLRKSSRKLGSL
binds: [4] | [5] | [6] | [7] | [8] | [9] | [10] | [11] | [12] | [13] | [14]

B3: MBP-PUB10 (C249A)-6myc (enzyme, not shown: large carriers; small tags and cut ends)
chain: MAGGAITPDSLIGLIAEINEIPGNFGLFKKDCSDLARRVGLLTHLIEEIRDSSPPSESDASSSLNSHECDWWSDLVVGLQAAKRLLSSATSFQARESSDGAAKRISFQFQCVTWKLEKALGDLTYDRYDISDEVREQVELARLQLRRAMQRYGSLNSKKFSSGLSEPMEKDASSNRKVIEKLESIPETVHSLSDEKKFESPPPWKSSSVSLAFFLSKDGDDERLEKAVTENSDDSQKSDNLTIPEDFLAPISLELMKDPAIVSTGQTYERSFIQRWIDCGNLSCPKTQQKLENFTLTPNYVLRSLISQWCTKHNIEQPGGYMNGRTKNSDGSFRDLSGDMSAIRALVCKLSSQSIEDRRTAVSEIRSLSKRSTDNRILIAEAGAIPVLVKLLTSDGDTETQENAVTCILNLSIYEHNKELIMLAGAVTSIVLVLRAGSMEARENAAATLFSLSLADENKIIIGASGAIMALVDLLQYGSVRGKKDAATALFNLCIYQGNKGRAVRAGIVKPLVKMLTDSSSERMADEALTILSVLASNQVAKTAILRANAIPPLIDCLQKDQPRNRENAAAILLCLCKRDTEKLISIGRLGAVVPLMELSRDGTERAKRKANSLLELLRKSSRKLGSL
binds: [15] | [9] | [16] | [17]

B4: MBP-PUB11-(ARM) (enzyme, not shown: large carriers)
chain: INGRTKNSGDMSVIRALVQRLSSRSTEDRRNAVSEIRSLSKRSTDNRILIAEAGAIPVLVNLLTSEDVATQENAITCVLNLSIYENNKELIMFAGAVTSIVQVLRAGTMEARENAAATLFSLSLADENKIIIGGSGAIPALVDLLENGTPRGKKDAATALFNLCIYHGNKGRAVRAGIVTALVKMLSDSTRHRMVDEALTILSVLANNQDAKSAIVKANTLPALIGILQTDQTRNRENAAAILLSLCKRDTEKLITIGRLGAVVPLMDLSKNGTERGKRKAISLLELLRKACQ
binds: [18]

B5: HA-PUB10 (enzyme, not shown: small tags and cut ends)
chain: MAGGAITPDSLIGLIAEINEIPGNFGLFKKDCSDLARRVGLLTHLIEEIRDSSPPSESDASSSLNSHECDWWSDLVVGLQAAKRLLSSATSFQARESSDGAAKRISFQFQCVTWKLEKALGDLTYDRYDISDEVREQVELARLQLRRAMQRYGSLNSKKFSSGLSEPMEKDASSNRKVIEKLESIPETVHSLSDEKKFESPPPWKSSSVSLAFFLSKDGDDERLEKAVTENSDDSQKSDNLTIPEDFLCPISLELMKDPAIVSTGQTYERSFIQRWIDCGNLSCPKTQQKLENFTLTPNYVLRSLISQWCTKHNIEQPGGYMNGRTKNSDGSFRDLSGDMSAIRALVCKLSSQSIEDRRTAVSEIRSLSKRSTDNRILIAEAGAIPVLVKLLTSDGDTETQENAVTCILNLSIYEHNKELIMLAGAVTSIVLVLRAGSMEARENAAATLFSLSLADENKIIIGASGAIMALVDLLQYGSVRGKKDAATALFNLCIYQGNKGRAVRAGIVKPLVKMLTDSSSERMADEALTILSVLASNQVAKTAILRANAIPPLIDCLQKDQPRNRENAAAILLCLCKRDTEKLISIGRLGAVVPLMELSRDGTERAKRKANSLLELLRKSSRKLGSL
binds: [19] | [20] | [21]

B6: HA-PUB10 (C249A) (enzyme, not shown: small tags and cut ends)
chain: MAGGAITPDSLIGLIAEINEIPGNFGLFKKDCSDLARRVGLLTHLIEEIRDSSPPSESDASSSLNSHECDWWSDLVVGLQAAKRLLSSATSFQARESSDGAAKRISFQFQCVTWKLEKALGDLTYDRYDISDEVREQVELARLQLRRAMQRYGSLNSKKFSSGLSEPMEKDASSNRKVIEKLESIPETVHSLSDEKKFESPPPWKSSSVSLAFFLSKDGDDERLEKAVTENSDDSQKSDNLTIPEDFLAPISLELMKDPAIVSTGQTYERSFIQRWIDCGNLSCPKTQQKLENFTLTPNYVLRSLISQWCTKHNIEQPGGYMNGRTKNSDGSFRDLSGDMSAIRALVCKLSSQSIEDRRTAVSEIRSLSKRSTDNRILIAEAGAIPVLVKLLTSDGDTETQENAVTCILNLSIYEHNKELIMLAGAVTSIVLVLRAGSMEARENAAATLFSLSLADENKIIIGASGAIMALVDLLQYGSVRGKKDAATALFNLCIYQGNKGRAVRAGIVKPLVKMLTDSSSERMADEALTILSVLASNQVAKTAILRANAIPPLIDCLQKDQPRNRENAAAILLCLCKRDTEKLISIGRLGAVVPLMELSRDGTERAKRKANSLLELLRKSSRKLGSL
binds: [20]
